Experimental data published in PMC4063736.
No constants are given. Whether binding was seen depends on the method and setting. In cells and extracts the contact can be indirect. A yes stands for co-enrichment or nearness to the bait. Other partners may have been found. No binding means not detected with the bait. For some of these results: Where a sequence is shown, tags or fusion partners need not be part of it.

T1: LpoA-His6 expressed from the chromosome (Vibrio cholerae) (UniProt Q9KUE0)
T1 sequence: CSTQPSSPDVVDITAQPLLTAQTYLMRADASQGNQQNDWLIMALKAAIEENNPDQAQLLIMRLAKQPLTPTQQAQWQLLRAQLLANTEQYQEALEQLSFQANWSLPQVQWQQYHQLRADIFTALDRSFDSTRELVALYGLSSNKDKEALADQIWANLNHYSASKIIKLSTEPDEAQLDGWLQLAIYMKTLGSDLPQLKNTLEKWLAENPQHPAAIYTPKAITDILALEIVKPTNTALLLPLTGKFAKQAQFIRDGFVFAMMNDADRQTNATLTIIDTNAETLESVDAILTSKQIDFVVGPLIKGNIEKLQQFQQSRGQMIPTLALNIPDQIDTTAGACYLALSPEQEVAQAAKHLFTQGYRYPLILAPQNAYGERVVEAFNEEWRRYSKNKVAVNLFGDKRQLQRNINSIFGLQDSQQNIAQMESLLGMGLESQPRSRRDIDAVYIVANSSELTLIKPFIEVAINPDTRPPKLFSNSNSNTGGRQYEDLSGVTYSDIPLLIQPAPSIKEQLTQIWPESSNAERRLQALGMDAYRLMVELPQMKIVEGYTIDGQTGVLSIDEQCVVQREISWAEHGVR


Columns and labels:
[1] = molecular target: T1, LpoA-His6 expressed from the chromosome (Vibrio cholerae); experiment: affinity purification with mass spectrometry
[2] = molecular target: 6x His-tagged CsiV expressed from its native chromosomal location (Vibrio cholerae); experiment: affinity purification with mass spectrometry

| Molecule | binding [1] | binding [2] |
| --- | --- | --- |
| CsiV (endogenous, V. cholerae) | binds | – |
| LpoA (endogenous, V. cholerae) (protein, UniProt Q9KUE0 27-603) CSTQPSSPDVVDITAQPLLTAQTYLMRADASQGNQQNDWLIMALKAAIEENNPDQAQLLIMRLAKQPLTPTQQAQWQLLRAQLLANTEQYQEALEQLSFQANWSLPQVQWQQYHQLRADIFTALDRSFDSTRELVALYGLSSNKDKEALADQIWANLNHYSASKIIKLSTEPDEAQLDGWLQLAIYMKTLGSDLPQLKNTLEKWLAENPQHPAAIYTPKAITDILALEIVKPTNTALLLPLTGKFAKQAQFIRDGFVFAMMNDADRQTNATLTIIDTNAETLESVDAILTSKQIDFVVGPLIKGNIEKLQQFQQSRGQMIPTLALNIPDQIDTTAGACYLALSPEQEVAQAAKHLFTQGYRYPLILAPQNAYGERVVEAFNEEWRRYSKNKVAVNLFGDKRQLQRNINSIFGLQDSQQNIAQMESLLGMGLESQPRSRRDIDAVYIVANSSELTLIKPFIEVAINPDTRPPKLFSNSNSNTGGRQYEDLSGVTYSDIPLLIQPAPSIKEQLTQIWPESSNAERRLQALGMDAYRLMVELPQMKIVEGYTIDGQTGVLSIDEQCVVQREISWAEHGVR | – | binds |
| PBP1A (endogenous, V. cholerae) (enzyme, UniProt Q9KNU5 1-825) MKFIKRLLVFSLICIILGVTTIFGFYFYVKSDLPDVATLRDVQLQTPMQVFSQDGKLIAQFGEKRRIPLKLEEMPKELIEAVIATEDSRYYEHYGFDPIGITRAAFAVLASGSASQGASTITQQLARNFFLSNEKKVMRKVKEIFIAIHIEQLLSKQEILELYLNKIYLGYRSYGVGAAAQAYFGKEVKDLTLGEIALIAGLPKAPSTMNPIYSVERATNRRNVVLQRMLDEKYITKAEYDAARAEPVLPKYHGAEIELNAPYVAEIARAWMVERYGEEAAYTSGMNVYTTVDSKLQRAANQAAINNLLAYDERHGYRGAEKELWQVNQPAWSSTQLSEYLSNEPTYGDMFPAAVLSVEEKSAQVWVKSYGVQTIAWEDMNWARRFINDDRQGPLPKSANEFLAAGQQIWVRPRTQDGAITAWKLTQVPNANTAFVAMNPENGAVTALVGGFNFVHNKFNRATQSVRQVGSSIKPFIYSAALNKGLTLATLINDAPINQWDESQGTAWRPKNSPPTYTGPTRLRIGLAQSKNVMAVRVLREVGLDETREYLTRFGFKLDQLPRSETIALGAGSLTPVQMAQGFSVFANNGYFVEPFYISRVENPFGNIEFSAEPKVVCHRECSSELDEFAEQDAASPYAPKVISEQNAFLTREMLYSNIWGGGEWSSDTGWNGTGWRAQALKRRDIGGKTGTTNDSKDAWYNGYAPGIVGVAWVGFDDHSRNLGKTAPNRNIEDDVSGAESGGKTALPAWVEFMSLALQDVPVQQKAVPNNIARVRIDRDTGLLTNKLDSSSMFEYFEAGTEPTEYVSEHVNESIYSTSSGEELF | no binding | no binding |
